Reference: the supplement of paper PMC3334620
Whole data set: some 33,000 sequences, median “E-score (-0.5 to 0.5)” near -0.0059, cut for the highest 2% near 0.26. The list shows a part of the results.

biological target: T1, Cin5 (UniProt P40917); assay: PBM E-score (8-mer binding enrichment) (E-score (-0.5 to 0.5)); higher = stronger / more preferred TF binding; settings: protein concentration: 100 nM; construct: GST-full length
T1 sequence: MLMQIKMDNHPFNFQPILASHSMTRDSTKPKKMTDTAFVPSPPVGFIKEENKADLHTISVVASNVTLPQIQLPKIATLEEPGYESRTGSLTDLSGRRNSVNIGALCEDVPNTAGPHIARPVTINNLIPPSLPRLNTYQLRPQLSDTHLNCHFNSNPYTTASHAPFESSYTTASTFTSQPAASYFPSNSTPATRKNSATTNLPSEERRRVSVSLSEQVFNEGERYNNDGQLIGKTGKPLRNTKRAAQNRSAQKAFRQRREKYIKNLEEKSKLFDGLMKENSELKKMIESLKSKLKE
How it was run: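 Universal all-10-mer Agilent arrays, double-stranded by primer extension on fresh or once-stripped slides, were probed with about 100-200 nM GST-tagged yeast transcription factors made by PURExpress. Fluorescent anti-GST detected bound protein, and masliner normalised the scans. E-scores from the Universal PBM Analysis Suite were given to each ungapped eight-base word pooled with its reverse complement.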

Sequence	PBM E-score
GTGAGATA	0.164
GGTGTTTA	-0.00352
GTTCGGGA	0.106
CCGAGAGG	-0.229
CAGCCTCG	-0.0103
GAGCAAGA	-0.0376
ATTCCGTG	0.139
ACTATCTA	0.148
CAGAAGAG	-0.115
CCGTCGCG	-0.14
AGGAAGAT	0.0519
GAGAAGAC	-0.0329
AAATTTGT	0.137
GCTGGCAA	0.0752
ATTAGTGC	0.226
TCAGGCGA	-0.06
GAACAATA	0.229
CACAGCGG	-0.134
AATAGGGA	0.0188
ATGCCAAC	0.0879
CAACGATA	0.0323
AAATCTAG	-0.0474
GCGACTGA	-0.12
GTGTTAGA	0.0639
AGGAGTCG	-0.0987

Sequence	PBM E-score
CAGCACAG	0.103
AGATCCGC	0.0508
ATTATAAC	0.212
CTGGGCCA	-0.366
CTCACGCA	0.274
CCTGGATC	-0.163
ATCTTCTC	0.118
CTGCGCAG	-0.126
CCATGCCC	-0.229
ACTTGTTA	0.0796
ACCCGCAA	-0.252
CGAACCTA	-0.0686
CACGCGCC	-0.0398
AAAGTATT	0.203
CGGTGTAA	-0.0608
GGTATAGA	-0.00764
GTGGGTAA	-0.125
GACAGGCA	-0.144
ACTGAAGT	0.109
ATTCGATC	0.143
AGCCCCGA	-0.0651
TAGGCCAA	-0.0899
ATCATAAG	0.204
GAGCAGGC	-0.227
GAACAGAC	0.0587

Sequence	PBM E-score
GTTGGGAA	-0.00813
AGCCGGGC	-0.216
GGGATATA	0.0575
CGCTCAAC	0.0617
ACATTCGA	0.0628
ATAATAAT	0.22
AGCAGGAT	0.0397
ACCCCCGC	-0.27
GATGCTTA	0.0868
AGTCAACC	-0.0575
GGCATTAA	0.0403
GGCTGCAC	-0.148
AAGTATCT	-0.0261
GCGCAGAA	0.148
ACTGGTCC	-0.242
CGTAGGAG	-0.233
CACGTCAG	0.184
ATAACTAA	0.141
ATGTTTAC	0.138
AAACCTTG	0.072
TCCATCAA	0.209
GGAGGTGA	-0.101
GTGGGCTA	-0.041
CATGTCTA	-0.151
AGAAGTCG	-0.0866

Sequence	PBM E-score
ACATGCAT	0.148
CCCACCGG	-0.277
GTGGATGA	0.157
AATAAATG	0.269
AAACAATG	0.196
ATCCGGAG	0.0842
CGCCTGTA	-0.153
AATCTTAA	0.121
CGGCGAAA	0.112
CGGGCTGA	-0.128
AGACTTAA	-0.139
AGAAATAA	0.197
AATGGTGA	0.0367
GCCATAGA	-0.162
TACGCTGA	0.196
AGCACGGC	-0.0856
ACAGGAGT	0.00086
ATCCAATC	0.0365
GAGTCCCC	-0.235
ACTTAGAA	-0.0604
ACTTTTAC	0.273
CAGCCTGA	-0.15
CCCATAAA	-0.0895
GTCAGAGA	-0.189
TTATGGAA	0.172

Sequence	PBM E-score
ATGCAAAC	0.17
ATTGACGA	0.0829
AAACACTA	0.184
GTATACCA	0.00106
AAAAGGGA	-0.1
AGGAAGTA	0.0506
CTCCCCGC	0.235
AAAAAGAT	0.149
CCTAACGA	-0.0973
AACATGCG	0.176
GTTCCGTA	0.24
ACTAGAAG	-0.113
AGGATGCG	-0.0938
CGGCTAAA	0.162
GACGCGTC	-0.165
AGAATTCG	0.0232
TGTTTGAA	-0.0142
GGGGGTCA	-0.453
ACGTGGTG	-0.0845
CTTGACCA	-0.0945
CGCGTTGC	0.0846
AGTTTTAC	0.119
ATGGCACC	-0.0839
CGGGTGCC	-0.121
ACGCATCA	0.138

Sequence	PBM E-score
CAGTTGAA	-0.0662
ACTGTAAC	0.0742
CGGTCAAG	-0.059
AAGTAGCG	-0.1
AGATAGAG	0.099
CAAGTTCC	-0.118
GGCCCCGA	-0.155
GAACCAGA	-0.183
GCATCGGC	-0.125
GGCGGAGA	-0.0732
GTCTAAGA	0.0467
GTAGGTTA	0.0894
GCGTACCC	-0.214
CTGGGTTC	-0.0172
AGGAGACA	-0.0392
GTAAGAGA	0.0452
ACCTTTAT	-0.122
CAATTCGC	0.227
ACGTGCTA	-0.159
CACTGCGA	-0.0355
CTTCTCAA	-0.135
GTAATGAC	0.0891
CTCTATTC	0.0982
GTTTTACA	0.124
ATCCACGC	-0.0622

Shown comma-delimited: part of the list above.
Sequence,PBM E-score
ACTAGAAG,-0.113
AGGATGCG,-0.0938
CGGCTAAA,0.162
GACGCGTC,-0.165
AGAATTCG,0.0232
TGTTTGAA,-0.0142
GGGGGTCA,-0.453
ACGTGGTG,-0.0845
CTTGACCA,-0.0945
CGCGTTGC,0.0846
AGTTTTAC,0.119
ATGGCACC,-0.0839
CGGGTGCC,-0.121
ACGCATCA,0.138
CAGTTGAA,-0.0662
ACTGTAAC,0.0742
CGGTCAAG,-0.059
AAGTAGCG,-0.1
AGATAGAG,0.099
CAAGTTCC,-0.118
GGCCCCGA,-0.155
GAACCAGA,-0.183
GCATCGGC,-0.125
GGCGGAGA,-0.0732
GTCTAAGA,0.0467
GTAGGTTA,0.0894
GCGTACCC,-0.214
CTGGGTTC,-0.0172
AGGAGACA,-0.0392
GTAAGAGA,0.0452
ACCTTTAT,-0.122
CAATTCGC,0.227
ACGTGCTA,-0.159
CACTGCGA,-0.0355
CTTCTCAA,-0.135
GTAATGAC,0.0891

(further entries)

Sequence	PBM E-score
CGATATAC	0.152
GGTCCCTA	-0.183
ACCGGAGA	0.123
GCCCTCAA	-0.219
CTGTCGTA	0.0969
CTCGCCGC	0.0301
CGTAGAGA	-0.124
AACCCGAG	-0.0387
CTCTAGCC	-0.218
ATCCAGGC	-0.0409
GGAAGCCC	-0.202
CGCGTTGA	-0.00093
CCGAAGAC	0.0676
ACCACCAA	-0.0451
ATGTGAAA	0.0249
CTCAGTGA	-0.116
AAGTGCTC	-0.192
GCTGTAGA	-0.137
ACAATTCT	0.0682
ATGATCAG	0.0372
GAGTATCA	-0.0396
TCGCATCA	0.0954
